Measurements published in publication doi:10.1101/2022.10.20.513059.
No constants are given. Whether binding was seen depends on the method and setting. In cells and extracts the contact can be indirect. Here binding means that the protein was enriched with, or labelled near, the bait; the list need not be complete.

Amino acid sequences for entries named in this document (tags omitted). A change or cut given only in a name is not applied to a line headed by its entry.
UniProt E9AM47: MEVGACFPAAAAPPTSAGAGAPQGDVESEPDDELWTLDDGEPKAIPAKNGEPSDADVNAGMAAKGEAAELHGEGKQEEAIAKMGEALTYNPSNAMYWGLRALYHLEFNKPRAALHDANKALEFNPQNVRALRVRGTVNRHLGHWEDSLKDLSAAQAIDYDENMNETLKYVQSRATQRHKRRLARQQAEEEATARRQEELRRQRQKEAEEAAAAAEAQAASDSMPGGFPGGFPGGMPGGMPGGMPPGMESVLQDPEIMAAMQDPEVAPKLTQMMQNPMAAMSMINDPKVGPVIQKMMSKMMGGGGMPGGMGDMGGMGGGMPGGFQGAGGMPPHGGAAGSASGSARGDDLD
UniProt E9ALS6: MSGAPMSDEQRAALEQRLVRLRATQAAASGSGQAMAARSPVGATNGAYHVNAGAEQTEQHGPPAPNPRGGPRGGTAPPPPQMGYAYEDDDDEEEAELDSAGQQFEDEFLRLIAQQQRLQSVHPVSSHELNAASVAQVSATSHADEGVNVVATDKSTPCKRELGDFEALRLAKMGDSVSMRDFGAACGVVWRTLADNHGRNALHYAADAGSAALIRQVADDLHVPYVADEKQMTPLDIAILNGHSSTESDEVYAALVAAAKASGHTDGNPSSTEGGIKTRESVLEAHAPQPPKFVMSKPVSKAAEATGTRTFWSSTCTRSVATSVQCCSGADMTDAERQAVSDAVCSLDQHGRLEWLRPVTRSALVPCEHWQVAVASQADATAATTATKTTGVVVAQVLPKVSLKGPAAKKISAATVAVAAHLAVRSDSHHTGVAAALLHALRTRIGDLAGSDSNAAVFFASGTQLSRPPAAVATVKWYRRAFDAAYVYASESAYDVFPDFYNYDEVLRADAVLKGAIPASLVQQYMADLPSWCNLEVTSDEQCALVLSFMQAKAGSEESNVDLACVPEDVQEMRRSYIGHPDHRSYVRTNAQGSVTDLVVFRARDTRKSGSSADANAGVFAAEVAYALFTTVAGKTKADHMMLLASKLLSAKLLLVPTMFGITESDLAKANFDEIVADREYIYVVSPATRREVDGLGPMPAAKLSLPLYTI
UniProt E9AQR7: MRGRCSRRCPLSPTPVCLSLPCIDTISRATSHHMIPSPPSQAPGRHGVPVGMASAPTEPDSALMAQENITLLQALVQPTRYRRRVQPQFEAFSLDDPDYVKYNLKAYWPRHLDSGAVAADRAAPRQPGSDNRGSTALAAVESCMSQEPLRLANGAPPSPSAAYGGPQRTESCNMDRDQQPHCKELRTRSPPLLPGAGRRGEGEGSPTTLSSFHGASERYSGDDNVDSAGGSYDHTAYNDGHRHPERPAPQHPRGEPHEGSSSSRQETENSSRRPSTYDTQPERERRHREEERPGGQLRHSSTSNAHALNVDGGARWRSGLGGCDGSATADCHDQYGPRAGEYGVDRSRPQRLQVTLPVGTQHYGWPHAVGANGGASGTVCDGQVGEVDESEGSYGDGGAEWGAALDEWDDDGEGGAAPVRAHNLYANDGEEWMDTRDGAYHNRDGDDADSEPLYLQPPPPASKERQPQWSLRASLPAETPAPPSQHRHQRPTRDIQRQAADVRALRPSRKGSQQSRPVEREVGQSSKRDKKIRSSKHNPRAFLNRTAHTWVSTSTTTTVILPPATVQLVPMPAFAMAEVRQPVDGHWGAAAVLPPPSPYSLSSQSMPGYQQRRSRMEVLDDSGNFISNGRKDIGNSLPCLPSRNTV
UniProt E9B5D9: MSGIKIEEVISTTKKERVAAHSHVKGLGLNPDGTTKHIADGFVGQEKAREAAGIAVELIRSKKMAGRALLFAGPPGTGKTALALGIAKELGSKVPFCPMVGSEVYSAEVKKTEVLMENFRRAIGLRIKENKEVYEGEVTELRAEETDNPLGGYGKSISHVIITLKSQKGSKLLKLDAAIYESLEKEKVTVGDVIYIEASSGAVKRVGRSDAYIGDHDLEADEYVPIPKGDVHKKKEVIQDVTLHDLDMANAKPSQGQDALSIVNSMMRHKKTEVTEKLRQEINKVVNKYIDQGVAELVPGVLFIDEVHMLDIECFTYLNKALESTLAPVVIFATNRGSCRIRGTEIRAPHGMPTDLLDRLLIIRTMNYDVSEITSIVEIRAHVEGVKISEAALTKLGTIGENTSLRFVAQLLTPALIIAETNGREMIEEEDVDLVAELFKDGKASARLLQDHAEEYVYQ
UniProt E9B552: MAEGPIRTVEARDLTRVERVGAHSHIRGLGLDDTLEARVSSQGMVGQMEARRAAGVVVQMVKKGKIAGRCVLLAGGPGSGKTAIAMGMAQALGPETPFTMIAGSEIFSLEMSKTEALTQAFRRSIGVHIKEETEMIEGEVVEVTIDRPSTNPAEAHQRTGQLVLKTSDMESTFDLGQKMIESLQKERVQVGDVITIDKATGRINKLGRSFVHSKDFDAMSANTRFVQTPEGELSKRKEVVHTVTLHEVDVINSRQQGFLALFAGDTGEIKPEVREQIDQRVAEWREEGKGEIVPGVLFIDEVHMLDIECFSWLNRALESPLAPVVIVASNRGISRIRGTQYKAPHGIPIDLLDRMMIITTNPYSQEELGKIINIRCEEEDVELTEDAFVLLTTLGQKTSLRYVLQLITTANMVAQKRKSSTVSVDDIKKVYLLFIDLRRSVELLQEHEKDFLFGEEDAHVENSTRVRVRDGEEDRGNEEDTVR

Key:
[1] = biological target: TOR1 (LmxM.36.6320), N-terminally Twin-Strep-tagged (L. mexicana) (UniProt E9AU66); experiment: affinity purification with mass spectrometry
[2] = biological target: RPTOR1 (LmxM.25.0610), N-terminally Twin-Strep-tagged (L. mexicana) (UniProt E9AXD8); experiment: affinity purification with mass spectrometry

Substance	binding [1]	binding [2]
HIP (HSC-70 interacting protein, LmxM.08_29.0320) (from UniProt E9AM47)	binds	
LmxM.08_29.1470 (from UniProt E9ALS6)	binds	binds
LmxM.16.1080 (from UniProt E9AQR7)	binds	binds
RPTOR1 (LmxM.25.0610), N-terminally Twin-Strep-tagged (from UniProt E9AXD8)	binds	
RUVBL1 (LmxM.33.3500) (from UniProt E9B5D9)	binds	
RUVBL2 (LmxM.33.2610) (from UniProt E9B552)	binds	
TOR1 (LmxM.36.6320), N-terminally Twin-Strep-tagged (from UniProt E9AU66)		binds
